PubChem BioAssay AID1671195 | Yale University | 2021
Shown is an unselected part of about 22,000 reagents tested. Of all reagents, about 1,510 (6.9%) were called active. 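Active includes knockdowns raising or lowering LDL uptake; positive z-scores mean more uptake, negative mean less.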 The numbers tell different reagents against one gene apart.

Purpose: 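Regulators of LDL receptor activity judged by labelled LDL uptake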 (primary screen)
System: human Huh7 hepatoma cells
Knock-down reagent: siRNA pool against human genes, 18 nM
Time to read-out: about 2 to 2.5 days of knockdown, then 8 h LDL uptake
Conditions: DiI-labelled LDL at 30 µg/ml for 8 h, in lipoprotein-deficient serum medium
Measured: 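Fluorescent LDL signal imaged in cells, scaled to the plate median, robust z-score for each replicate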
Reading the numbers: robust z-score: higher = more LDL uptake after knockdown
Hit rule: 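a gene counts as active if at least two replicate z-scores exceed ±2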

target gene	reagent no.	robust z-score, replicate 1	robust z-score, replicate 2	robust z-score, replicate 3	activity call
OR2B2 (GeneID 81697)	1	-1.77	-1.7	-1.71	inactive
VMA21 (GeneID 203547)	1	1.41	1.26	1.74	inactive
MSRB1P1 (GeneID 441849)	1	0.135	0.263	0.122	inactive
DIP2B (GeneID 57609)	1	0.463	0.43	0.164	inactive
CLPTM1 (GeneID 1209)	1	-0.899	0.0642	-0.352	inactive
MAP4 (GeneID 4134)	1	-0.549	-0.391	-0.97	inactive
SPIC (GeneID 121599)	1	2.19	2.59	0.86	active
ZEB1 (GeneID 6935)	1	1.11	0.363	0.214	inactive
LHFPL2 (GeneID 10184)	1	-0.67	-0.924	-1.41	inactive
LOC441615 (retired record) (GeneID 441615)	1	0.252	0.664	0.388	inactive
PGLYRP3 (GeneID 114771)	1	-2.16	-2.01	-2.43	active
MMP24 (GeneID 10893)	1	-1.63	-1.51	-0.248	inactive
ABHD4 (GeneID 63874)	1	0.185	-0.208	-0.571	inactive
C12orf76 (GeneID 400073)	1	1.65	1.53	1.58	inactive
MSMB (GeneID 4477)	1	-0.355	-0.245	0.0374	inactive
DGCR8 (GeneID 54487)	1	0.259	-1.15	-0.627	inactive
NAT8B (GeneID 51471)	1	0.713	-0.00618	0.39	inactive
KCTD7 (GeneID 154881)	1	1.46	1.15	0.457	inactive
FAN1 (GeneID 22909)	1	-1.18	-0.839	-1.13	inactive
RBM5 (GeneID 10181)	1	0.978	0.803	0.215	inactive
LOC440691 (retired record) (GeneID 440691)	1	-0.787	-0.808	-0.821	inactive
USP12 (GeneID 219333)	1	-0.569	-0.743	-0.688	inactive
ZNF488 (GeneID 118738)	1	-1.02	-1.05	-1.14	inactive
GUSBP14 (GeneID 11039)	1	0.245	0.0325	-0.356	inactive
GUSBP14 (GeneID 11039)	2	-0.574	0.00898	-0.131	inactive
GNG3 (GeneID 2785)	1	0.209	0.34	0.364	inactive
ADGRD1 (GeneID 283383)	1	-2.6	-1.52	-1.68	active
SUSD4 (GeneID 55061)	1	-1.03	-1	1.24	inactive
LOC442008 (retired record) (GeneID 442008)	1	-0.0484	0.724	-0.0621	inactive
TAF15 (GeneID 8148)	1	-0.822	-0.625	-0.85	inactive
SIT1 (GeneID 27240)	1	-1.3	0.492	-1.49	inactive
KXD1 (GeneID 79036)	1	0.813	0.725	0.744	inactive
CEP250 (GeneID 11190)	1	-0.232	-1	0.52	inactive
LOC388528 (retired record) (GeneID 388528)	1	-1.2	-1.21	-1.08	inactive
LOC401703 (GeneID 401703)	1	-0.000379	0.269	0.523	inactive
LRCH3 (GeneID 84859)	1	1.07	0.29	0.504	inactive
SLC19A3 (GeneID 80704)	1	-0.86	-1.46	-1.05	inactive
LMBRD2 (GeneID 92255)	1	1.25	0.918	1.06	inactive
SDAD1 (GeneID 55153)	1	-0.817	-1.3	0.169	inactive
ZC4H2 (GeneID 55906)	1	1.22	-0.0279	0.745	inactive
ST13P2 (GeneID 344328)	1	-0.888	-0.98	-0.649	inactive
ZNF180 (GeneID 7733)	1	-1.07	-0.392	-1.15	inactive
CYP2W1 (GeneID 54905)	1	-1.94	-1.88	-1.82	inactive
TYMP (GeneID 1890)	1	-1.19	1.14	-0.893	inactive
MED29 (GeneID 55588)	1	0.565	2.3	0.36	inactive
TNFAIP1 (GeneID 7126)	1	-0.409	-1.06	-0.704	inactive
FGL1 (GeneID 2267)	1	1.7	1.89	0.872	inactive
H2BC18 (GeneID 440689)	1	-0.69	-0.411	-0.251	inactive
SCG3 (GeneID 29106)	1	1	-0.555	0.135	inactive
OR1A2 (GeneID 26189)	1	1.03	-0.26	2	inactive
COPZ2 (GeneID 51226)	1	2.13	2.04	1.32	active
CUX1 (GeneID 1523)	1	-1.47	-1.03	-1.81	inactive
KIF4A (GeneID 24137)	1	1.34	0.935	0.0373	inactive
DAB2 (GeneID 1601)	1	-0.93	-0.482	-0.875	inactive
CLEC4E (GeneID 26253)	1	-1.08	-0.963	-2.69	inactive
CRMA (GeneID 253868)	1	-0.271	0.186	0.275	inactive
HECTD3 (GeneID 79654)	1	1.01	1.01	1.11	inactive
PIGK (GeneID 10026)	1	-0.926	-0.458	-0.597	inactive
NRG1 (GeneID 3084)	1	1.29	-0.997	0.333	inactive
MYOZ1 (GeneID 58529)	1	-1.25	-0.527	-0.556	inactive
EP300 (GeneID 2033)	1	2.54	1.93	2.76	active
COLQ (GeneID 8292)	1	-1.51	-1.5	-1.76	inactive
CIAO2A (GeneID 84191)	1	1.5	1.28	1.07	inactive
FGF5 (GeneID 2250)	1	-1.12	-0.378	-0.734	inactive
SLC25A20 (GeneID 788)	1	1.46	-0.388	-2.78	inactive
LOC153910 (GeneID 153910)	1	0.351	-0.521	0.611	inactive
INO80E (GeneID 283899)	1	-0.754	-0.682	-0.682	inactive
MS4A12 (GeneID 54860)	1	1	1.09	1.15	inactive
